Legend:
[1] = system: male C57Bl/6 mice with myocardial infarct
Excerpt: FIGS. 5A-D. Mouse MI model. Representative mouse EKG tracings pre (FIG. 5A) and post (FIG. 5B) coronary artery ligation. […] Arrows mark lateral and posterior left ventricle (LV). LVIDD, LVIDS=LV internal diameter at systole and […], respectively. RV=right ventricle. […] Cardiac dimensions were obtained from 2-D guided M-mode images (100 frames/sec) and were read blinded using short axis and a parasternal long-axis views with the leading edge method. All echo measurements were averaged over 3 consecutive beats on unsedated mice at 7 and 30 days after infarction. Statistical significance assessed by the Wilcoxon rank sum test.
(§1) Myocardial infarcts were induced in male C57Bl/6 mice by coronary ligation (FIG. 5) as previously described (Alfaro et al., 2008).
Ventricular remodeling and cardiac functional parameters will be assessed by echo.
Mammalian cardiomyocytes irreversibly withdraw from the cell cycle soon after birth and undergo terminal differentiation. […] Therefore, cardiac injury causes permanent myocardial loss and cardiac dysfunction. […] Proliferation was assessed by immunostaining for Ki-67. […] Phosphorylation of histone 3 (pH3) on Ser 10 is an established cellular marker for chromosome condensation during mitotic prophase (van Amerongen and Engel, 2008).

mice = settings: IV or IP, levels high enough for Wnt-inhibitory plasma levels
Excerpt: as §1

Cc1cc(/C=C/c2ccc3cc(N(C)C)ccc3[n+]2C)c(C)n1-c1ccccc1 [pyrvinium]
LVIDD, LVIDS, IVSS, IVSD percentage difference days 7 to 30, compared to Cmpd 211 ([1]; echo, single 200 nM injection): smaller
Mice with lethal toxicity, died within the first 24 hours ([1]; male, mouse, in vivo): 15 mice
Time to death in most mice (mice): 24 to 48 h

From patent US9175090B2, “Methods of using an antibody to inhibit WNT-mediated signaling in cancer” (Vanderbilt University, priority 2011, dated 2015)
